Among the data in patent publication US20110053969A1, “NOVEL DIAZASIPIROAKANES AND THEIR USE FOR TREATMENT OF CCR8 MEDIATED DISEASES” (ASTRAZENECA AB, priority 2005, published 2011) are IC50 and microsomal CLint values, retold here.

Protein sequences, listed by entry. Tags and fused reporters are not part of them.
UniProt P51685, whole entry: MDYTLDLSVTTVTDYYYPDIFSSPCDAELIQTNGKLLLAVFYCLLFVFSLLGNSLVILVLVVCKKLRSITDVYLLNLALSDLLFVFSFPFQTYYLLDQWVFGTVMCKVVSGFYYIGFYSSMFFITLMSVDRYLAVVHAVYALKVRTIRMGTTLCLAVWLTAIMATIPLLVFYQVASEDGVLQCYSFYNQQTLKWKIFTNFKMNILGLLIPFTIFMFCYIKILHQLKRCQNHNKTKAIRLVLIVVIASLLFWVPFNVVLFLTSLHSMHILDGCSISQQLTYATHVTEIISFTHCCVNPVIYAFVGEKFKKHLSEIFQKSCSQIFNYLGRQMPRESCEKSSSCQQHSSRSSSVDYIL

Data set [1] concerns the target T1, human recombinant chemokine CCR8 receptor (Homo sapiens, UniProt P51685).
T1 construct: purchased Euroscreen ES-136-M; host or cells: CHO-K1 cells (transfected), membrane preparation
Nature of the data set: CCL1 SPA binding assay. Particulars: inhibition of 125I CCL1 binding to membranes from CHO-K1 cells transfected with human CCR8. On the procedure:
Membranes from CHO-K1 cells transfected with human recombinant chemokine CCR8 receptor (ES-136-M) were purchased from Euroscreen. Membrane preparations are stored at −70 C in 7.5 mM Tris-Cl pH 7.5, 12.5 mM MgCl2, 0.3 mM EDTA, 1 mM EGTA, 250 mM sucrose until used.
The CCR8 membranes (50.6 mg/ml) were preincubated with Wheat Germ Agglutinin SPA beads (4.05 mg/ml) in assay buffer (50 mM HEPES, 1 mM CaCl2x2H2O, 5 mM MgCl2x6H2O, 75 mM NaCl, 0.1% BSA) at pH=7.4 for 2 hours on ice. A 10-point dose-response curve (final concentrations 50 μM, 16.7 μM, 5.6 μM, 1.9 μM, 0.62 μM, 0.21 μM, 0.069 μM, 0.023 μM) was prepared by diluting compounds by serial dilution 1:3 in DMSO. In the screening plate (Polystyrene NBS plates, Costar Corning 3604) 1 μl from the DMSO solutions of compounds was transferred into each well. 1 μl of DMSO was added to the blank control wells and 1 μl unlabeled CCL1 (300 nM) was added to background control wells. 50 μl of the SPA bead-membrane mixture was added into each well. Finally, 50 μl. ([…]) ^125I CCL1 (2000 Ci/mM) was added to each well. Plates were then incubated at RT with shaking (700 rpm) for 90 minutes followed by 30 minutes at RT without shaking. The plate was read in a Wallac MicroBeta counter for 2 minutes/well.

A short description of data set [2]: Human microsomal stability assay. In kind it is in vitro ADME. The settings on record: human microsomes (Xenotech), 1 mg microsomal protein/mL, 2.5 μM compound, 2 mM NADPH, pH 7.4, 37° C., read-out: Human Microsomal Stability (intrinsic Clearance, CLint). On the procedure:
Human Microsomal Stability Assay
The assay is run in a 96-deepwell format at 1 mg microsomal protein (Xenotech)/mL in potassium phosphate buffer (pH 7.4) with a compound concentration of 2.5 μM and a NADPH concentration of 2 mM. Samples at four time-points (0, 5, 15 and 30 minutes) are withdrawn and the enzymatic reaction is terminated by protein precipitation with 1% acetic acid in acetonitrile. The incubations are performed on a thermostated plate (37° C.) placed on a Tecan worktable, and all liquid handling was performed robotically. After centrifugation of the samples, the supernatants are pooled in sets of four before they are analysed by liquid chromatography with tandem mass spectrometry detection (LC/MS/MS) using multiple reaction monitoring (MRM). Data are presented as intrinsic Clearance (CLint), μl/min/mg protein, calculated from the initial linear part of the compound disappearance curve.

A word on the IC50: it is the concentration at which inhibition is half-maximal. Usually microsomal CLint stands for the rate of metabolic loss divided by the concentration. For `COc1ccccc1Oc1ccccc1CN1CCC2(CC1)CCN(C(=O)c1cccn(C)c1=O)CC2` [Example 1, 3-({9-[2-(2-methoxyphenoxy)benzyl]-3,9-diazaspiro[5.5]undec-3-yl}carbonyl)-1-methylpyridin-2(1H)-one], in data set [1], the IC50 amounted to 44 nM. Also, the intrinsic metabolic clearance (microsomal CLint) at 2.5 μM in data set [2] is 15.7 µL/min/mg.
